Here are results for 107 sequences from PubChem BioAssay AID1508600 (Functional Genomics Laboratory (NCATS/FGL), 2020).

About 3,700 (7%) of roughly 53,000 sequences were called active.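 Rule for the calls: active = gene knockdowns whose robust z-score for IL-1 alpha signal is at least 2 or at most -2, so actives lie on both sides; inactive = the rest.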 The list shows a part of the results.

The assay in a line: Components of the Cytosolic LPS Sensing Pathway: Gene Identification via Genome-wide siRNA Screen. The following applies: RAW264.7 macrophages, IL-1a HTRF, actives lie on both sides, screened at 100 nM (by protocol), cells primed 5 h with Pam3CSK4 first. The text has this:
Non-canonical inflammasome activation by cytosolic LPS is a critical component of the host response to Gram-negative bacterial infection, however we lack a comprehensive understanding of the cellular processes that control this pathway. Here we describe a genome-wide siRNA screen to identify genes regulating the mouse macrophage IL-1 alpha response to cytosolic LPS.
RAW264.7 cells were maintained in complete DMEM media, comprising DMEM with 4.5 g/L glucose, 10% FBS (Gemini Bio-Products, West Sacramento, CA), 2 mM Glutamine (Lonza) and 20 mM HEPES (Lonza), hereafter complete DMEM.
The RNAi screen was conducted in 384-well format using the Ambion Silencer Mouse Genome siRNA Library (#4391425), which consists of three unique, nonoverlapping, nonpooled siRNAs for each of 17,000 gene targets. siRNA reagents ([…]) were stamped into 384-well white flat-bottom microplates (Corning, 3570) using a Velocity11 VPrep liquid handling system (Agilent) integrated into a BioCel robotic platform (Agilent) in columns 1-22, leaving columns 23-24 empty for negative (Ambion, Negative control #1) and positive (mouse Casp4) controls, respectively. The median value of each plate's negative control column was used to normalize sample wells, and the positive control was used to assess transfection efficiency and assay performance.
Lipofectamine RNAiMAX Transfection Reagent ([…]; Invitrogen) was added in […] serum-free, antibiotic-free media to plate wells using a Thermo Scientific Matrix WellMate and Microplate Stacker. Plates were incubated for 45 min at room temperature to allow for the sufficient formation of siRNA-lipid complexes. Cells were seeded at a density of 1x10^4 cells per well in 20 microL media containing 20% (vol/vol) FBS without antibiotics. The final concentration of siRNA in each well was 100 nM. Cells were cultured for 48h at 37 degrees C in 5% CO2 before addition of […] of TLR ligand Pam3CSK4 for 5 hours. The medium was then removed, replaced with […] growth media and cell were transfected with […] of LipidA and TransIT-TKO (Mirus) for 24 hour. At the end of the LipidA treatment, […] of supernatant was transferred to a 384 Greiner Bio-one non-binding low volume plate and […] of IL-1a HTRF reagent (Cisbio, 62MIL1APEH) was added and incubated at room temperature overnight. The plates were read on an EnVision plate reader (PerkinElmer). Cell viability was measured by adding 20ul Cell Titer Glo to the original plate and running a luminescence read on the EnVision. The quantified IL-1a signal for each siRNA gene-targeted well was divided by the median of the negative control wells and multiplied by 100 to achieve a negative control normalized value for each well/siRNA. This normalized value was then used to generate a robust z-score by first taking the log of each value and then by subtracting the median and dividing by the […].
(TR-FRET usually uses a lanthanide donor and a delayed reading to cut background.)
For the sequence GAAGCUGCACAUCACCAGCTT against Fam43a, the z-score was inactive: 0.927.
To GCCUUAAGUGUUCAUGUAATT against Vhl belongs inactive: -0.872.
To GGAAGCAUCUCAUUAUUCATT against Lamp2 belongs inactive: 0.0306.
To GGUAACUUCCCAGGAGGGATT against Bcl9 belongs inactive: 0.549.
GGGAGUUUCUUAUUCACACTT against Lgi1: the z-score is inactive: -0.0481.
For CCCACUGCCAAGUACAAUGTT against Dmwd the value was inactive: 1.44; for GGAGAUACAGAUGAAUGAATT against Atg16l1, inactive: -0.169; for GGUGUAUAAUAUGAGAUAGTT against Rdx, inactive: 0.0621.
For GGAGAACAAGGUGACUUGGTT against Irx1 the value was inactive: -0.0914; for CCAGAUUAACUACAAAUCCTT against Pten, inactive: -0.0127.
For GGGACCCUGAGAAAAGACATT against Tln1 the value was inactive: 0.442; for GCCAAAUAGUUCCUUUCUGTT against Gatc, inactive: 0.734; for GGAUUAUGGGAAUUAACUATT against Mpdz, inactive: 1.06.
For the sequence GGAUGCAAUUAGGAAAUUATT against Heatr5b, the z-score is inactive: -0.516.
For CCUGUACCUGCGUAUUCAATT against Grap the value was inactive: -1.63.
For CCACCAUGCAACCUCCUGATT against Acsl6 the value was inactive: -0.455.
For GCAACACCUUAUGUUUCAUTT against Cab39 the value was inactive: 1.68.
Consider GGUGGUGGCAAAUAAAAUUTT against Smr2, for which the z-score is inactive: -1.46.
For the sequence GGAACGACUACAAUGAACCTT against Lrr1, the z-score is inactive: -1.46.
To GGAUUGCUUUUGAGCAACATT against Ccdc125 belongs active: -2.05.
For GGAAAAAUUAGACCGUGAGTT against Pcdhb4 the value was inactive: -0.299; for GGACUUGGUGGUAAUCGACTT against Fig4, inactive: 0.433.
For GGAAGAGAAGUUCAUGAGCTT against Gabrr1, the z-score was inactive: -0.605.
For GGCGGUUUCUUUUCAUUGGTT against Nhlh1 the value was inactive: 0.326.
To GGAUUGAGAAAAUCUACAUTT against Tnfrsf8 belongs inactive: 0.505; to GCUCAUGCUCUUAUGUUAGTT against Vamp3, inactive: 0.353; to GGCCGAAUAAUGCAUAUACTT against Ythdf2, inactive: -1.59.
To GGUUCAUAAAGACAAACCUTT against Vmn1r71 belongs inactive: 0.568; to GGGCUUCAAACCCACAGAATT against Nova2, inactive: -1.19; to GGUAGCGAUGUUUUCUUAUTT against Nt5dc3, inactive: 1.66.
For the sequence GUGCAAUCCUUCUUCUUCCTT against Olfr166, the z-score is inactive: -1.36.
To GGAAGGUUUUACUCAGGCUTT against Vps50 belongs inactive: -1.06; to GGCUUCUUUGUCAUAGGAGTT against Olfr353, inactive: 0.287; to GGUCUUCAAAGAAAGGAUCTT against Farsb, inactive: -1.25.
For GGAAGGUAACUGGAAGGAGTT against Snx4 the value was inactive: 1.84; for GGAGAAACAGCAAGUAUCUTT against Il21r, inactive: -0.308; for GCAGAUAACUACUGCCACGTT against Pkd1l3, inactive: -0.86.
To GCAAUGUUCGCUUGAAACUTT against Septin10 belongs inactive: 1.02; to GGCAGCAUUACACUGAAUCTT against Slc36a4, inactive: 0.436; to GGCCAUUAACCAGUCUAUCTT against Cdhr5, inactive: 0.977.
GGAGCAAAGCUAAAUGUUGTT against Far1: the z-score was inactive: -0.476.
Regarding GGUAUGCACCUGUAACUCATT against Kcnk1, the z-score was inactive: 1.48.
For GGGAUAUCCAAAGUCACGGTT against Capza3 the value was inactive: 0.305.
To CCUACGUCAUUUCAGCACCTT against Hc belongs inactive: 0.356.
With GGAUUCUCCAUUCUCAGUGTT against Serinc2, the z-score is inactive: -0.353.
For GGGACCCUACAAAAUCAUUTT against Ganab the value was inactive: 0.467; for GGACAGCUCUCUCCAUACATT against Tlr9, inactive: 0.653; for GGUCCUAUUUAUUAAUACCTT against Emid1, inactive: -0.0264.
“GGAGGCUUUUCAGACCAAGTT against 3830406C13Rik”: the z-score is inactive: 0.334.
For GGAGAAAAAAGUGAAACUCTT against Cntn4 the value was inactive: -1.41; for GGCACAGAAAAUCUUCAAATT against Ap2a1, inactive: 0.97.
To CAAUAACACUGGUGCCGACTT against Adam34l belongs inactive: 1.73; to CCUCUCCCAUGUAGCUUACTT against Wdr38, inactive: 0.306.
For GGUCCUUCAUUUGGUUACATT against Dtna the value was inactive: 0.812.
As to GCUGGACCCUUAAGUGUAATT against Bmyc, the z-score was inactive: 0.308.
To GCAGGGAGGCAUCUUCUUUTT against Olfr3 belongs inactive: -0.22; to GGCUGGUACUUGAGUUCAATT against Soat1, inactive: -0.00533.
Consider GGAACAGUGCUUGUAUCAGTT against Clasrp, for which the z-score was inactive: 0.675.
For CGGAACUCUGCCACAAGUUTT against Zfp36 the value was inactive: 1.27; for CCAACAAUGAUUAAUCAGCTT against Meis1, inactive: -1.38; for GGAACCUUCAGAGCGACUUTT against Trib3, inactive: 0.224.
For GGAUCAUACCAAAGUACACTT against Cyp2a12 the value was inactive: 1.32.
To GGUAUUUUGUUUUUUGGGUTT against Olfm3 belongs inactive: 0.0347.
Turning to CCUGAACGACAGAUUGGCATT against Krt20, the z-score is inactive: -0.697.
To GUGUGCUAUGAGCAAUGCCTT against Sprr2a1 belongs inactive: -1.34; to GGAAAAGUGGGUUGAAGUUTT against Ipp, inactive: 1.5.
With GGAUUUCGGCUUUUUGAACTT against Bcas1, the z-score is inactive: 0.531.
For CCAAAAGUCACGUUUCUCATT against Per2 the value was active: -2.09; for GGGAGGUGUGGUAAACUGUTT against Dcaf8, inactive: -0.877.
For GGAGCAAUUUGAAGACUAUTT against Rab11fip4 the value was inactive: -0.0904; for GGAAAGCAAAAAAAACUGUTT against Tnfaip8, inactive: -1.68; for GCUCGCAUUUCCAUAAUACTT against Taar2, inactive: -0.805.
Take GCAAGACGCACUGUUACUGTT against Fam214a: the z-score is inactive: 0.196.
To GGCCUCCUCUCACAAGUAUTT against Tubb3 belongs inactive: 0.492; to GGUGUCACGACAAACAUUCTT against Fam83h, inactive: -1.6; to GGAUCUUAUUAUUUGAUCCTT against Mettl15, inactive: -0.671.
As to GCUCCCUACUUUACAUAAATT against Best3, the z-score is inactive: -0.856.
Turning to GCUGCCAAUACAAAUUGUCTT against Nlrp9a, the z-score was inactive: 0.428.
Regarding GCCUGUAAUCCCAUCAUCUTT against Taar5, the z-score was inactive: -0.932.
As to GGCUCAACGGGAUUACUUUTT against Pgd, the z-score was inactive: -0.578.
For GCAGAUUCGCUGCCUGAUGTT against Snapc4 the value was inactive: -0.917; for GGAGCAGGUGUUGAAAGACTT against Gtf2a1l, inactive: 1.55; for CCAAGAUGCACAGUGAUAATT against Pknox2, inactive: -0.925.
To “GGUUAGGCACAAAUAAGUUTT against B230206H07Rik” belongs inactive: 1.08.
Regarding GGCUCUGAAUAAACUCCUCTT against Olfr1013, the z-score is inactive: -1.22.
To CCCAGAAUUUGAGUUACUCTT against BC107364 belongs inactive: 0.383; to GGGUGACUGGAAUGACAUCTT against Galnt2, inactive: -0.325; to CCAACUAUGCCAUCAAUAATT against Ttll13, inactive: -0.318.
To CCUCCUGCCACAUUCUUUCTT against AU022252 belongs inactive: 0.91; to CCAGUUACUAUGAGAAUGUTT against Yars, inactive: 0.0674.
As for GGUCAUGAUGGAAUGAGAATT against Niban2, the z-score was inactive: -0.0357.
For GGCCUUCCUUUUCUAUAGATT against Foxd2 the value was inactive: -0.000768; for GUUUGGCUCACUGUGCUGGTT against Gjc2, inactive: -0.698; for CCAUCUAUGGACCCGUAACTT against Ftdc2, inactive: 1.92.
As for CCGGAGUUGAAACCUAAAATT against Hmgn5, the z-score was inactive: 0.524.
To CCAAAUAGAGAGCCUAAAUTT against Loxl2 belongs inactive: -0.173; to CCAUAUUUUACCCAAAAGCTT against Prune1, inactive: -1.04; to GGAGAGCACCGAUGAAAAUTT against Mcam, inactive: 0.239.
For CCUACCAUACCAUGAGCAGTT against Pou4f3 the value was inactive: 1.52; for GCCCGUUACUAUUGUUGAGTT against Incenp, inactive: 0.149.
To GACCAGAUUCUUACUUUGGTT against Olfr9 belongs inactive: 0.296; to CCUAUGACUGUAUGUUUUGTT against Hnrnpr, inactive: 0.577; to CCAGGAAUAGAUAAACUCUTT against Olfr120, inactive: -0.307.
With GGAAAAUCUUAGGAAGAUGTT against Elf4, the z-score is inactive: -0.39.
As for CCGAGAGUGCUGGAUGAUATT against Tnfaip8l1, the z-score is inactive: -0.598.
Turning to GGACGGGACUUACAUAGUGTT against Hsfy2, the z-score is inactive: 0.373.
Regarding GGAUGUCAGUAAUCAAUAGTT against Oxct1, the z-score is inactive: -0.498.
